Laboratory results published in publication PMC11482939 (bioRxiv, 2025).

Test system: UM cell lines (MP41, MP38, MP46)
Test: Concentration-response cell viability, UM cell lines overall
Assay type: cell-based
Conditions: Homo sapiens, 72 h, read-out: UM IC50

In the case of CN[C@@H]1C[C@H]2O[C@@](C)([C@@H]1OC)n1c3ccccc3c3c4c(c5c6ccccc6n2c5c31)C(=O)NC4 [Staurosporine], the IC50 is reported as about 336 nM.
